This test concerns the target endogenous BSG (human (endogenous in SK-MEL-5 and SK-MEL-28)) (UniProt P35613). Kind of test: co-IP; endogenous proteins; SK-MEL-5 and SK-MEL-28 lysates immunoprecipitated with control IgG or anti-BSG antibody, immunoblot with anti-TRAF6.

By UniProt entry, the sequences of proteins in these tests, tags left out. Where a name states a change or a piece, a line headed by the entry shows the natural chain unless it says otherwise.
UniProt P35613: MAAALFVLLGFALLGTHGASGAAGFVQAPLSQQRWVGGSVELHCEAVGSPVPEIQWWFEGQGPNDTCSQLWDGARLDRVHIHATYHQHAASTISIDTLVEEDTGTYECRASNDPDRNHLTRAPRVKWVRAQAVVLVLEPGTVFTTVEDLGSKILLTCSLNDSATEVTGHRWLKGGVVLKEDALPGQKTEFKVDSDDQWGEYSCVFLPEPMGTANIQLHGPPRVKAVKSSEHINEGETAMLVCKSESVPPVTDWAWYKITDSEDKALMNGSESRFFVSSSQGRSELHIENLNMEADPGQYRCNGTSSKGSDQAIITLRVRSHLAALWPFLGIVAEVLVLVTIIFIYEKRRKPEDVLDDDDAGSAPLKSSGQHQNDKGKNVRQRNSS
UniProt Q9Y4K3: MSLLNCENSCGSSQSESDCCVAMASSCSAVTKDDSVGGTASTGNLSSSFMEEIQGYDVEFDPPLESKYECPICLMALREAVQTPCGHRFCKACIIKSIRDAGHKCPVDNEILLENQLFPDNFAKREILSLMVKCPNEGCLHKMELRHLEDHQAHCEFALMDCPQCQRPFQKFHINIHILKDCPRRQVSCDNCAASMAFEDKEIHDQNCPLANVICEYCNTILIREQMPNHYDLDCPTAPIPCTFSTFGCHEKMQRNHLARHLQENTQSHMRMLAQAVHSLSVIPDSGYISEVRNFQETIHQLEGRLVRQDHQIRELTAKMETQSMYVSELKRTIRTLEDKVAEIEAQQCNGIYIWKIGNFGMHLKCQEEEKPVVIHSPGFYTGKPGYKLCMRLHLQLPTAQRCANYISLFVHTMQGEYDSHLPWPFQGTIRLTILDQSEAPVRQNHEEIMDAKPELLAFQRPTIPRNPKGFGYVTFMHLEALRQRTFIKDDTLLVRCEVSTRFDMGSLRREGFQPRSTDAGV

Results are given in words; binding and its absence hold for the method and conditions named. Binding seen in cells or lysates may run through a third protein. Binding can be weak; no strength is given.

For “endogenous TRAF6 (from UniProt Q9Y4K3 1-522)”, the binding entry was “binds”.

The values are drawn from article PMC4872777.
